No constants are given. Whether binding was seen depends on the method and setting. In cells and extracts the contact can be indirect. Some results given as binding are weak or reduced against the parent protein; the word gives no strength. For some assays here: Where a sequence is shown, tags or fusion partners need not be part of it.

Here are results for 1 molecule from article PMC5673645.

Experiment [1] addresses T1, FAR-RED … 219/JASMONATE … 1 (FIN219/JAR1), endogenous in wild-type Col-0 seedlings (Arabidopsis thaliana (endogenous in Col-0 seedlings)) (UniProt Q9SKE2).
T1 sequence: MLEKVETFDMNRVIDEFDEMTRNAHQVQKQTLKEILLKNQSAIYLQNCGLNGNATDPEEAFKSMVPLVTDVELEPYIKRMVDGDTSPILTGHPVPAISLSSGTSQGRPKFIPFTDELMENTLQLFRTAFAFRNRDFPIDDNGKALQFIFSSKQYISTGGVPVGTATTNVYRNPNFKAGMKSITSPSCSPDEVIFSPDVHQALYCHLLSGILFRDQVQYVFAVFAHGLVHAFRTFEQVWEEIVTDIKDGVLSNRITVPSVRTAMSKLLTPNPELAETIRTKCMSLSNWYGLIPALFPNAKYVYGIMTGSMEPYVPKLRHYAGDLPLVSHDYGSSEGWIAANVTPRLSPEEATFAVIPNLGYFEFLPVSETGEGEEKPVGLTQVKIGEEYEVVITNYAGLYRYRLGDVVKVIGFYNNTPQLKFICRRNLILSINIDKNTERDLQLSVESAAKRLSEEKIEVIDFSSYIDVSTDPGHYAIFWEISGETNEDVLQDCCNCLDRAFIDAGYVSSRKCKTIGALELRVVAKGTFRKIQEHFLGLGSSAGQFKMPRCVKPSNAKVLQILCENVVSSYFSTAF
The experiment in a line: co-IP; 2 mg protein extract of Col-0 (Wt), fin219-2 and pGR219 seedlings grown under simulated shade, immunoprecipitated with FIN219 monoclonal antibodies; beads 4°C for 4 h, washed three times with grinding buffer (50 mM Tris-HCl pH 5.7, 150 mM NaCl, 10 mM MgCl2, 0.1% BSA, 0.1% NP-40, MG132); blots probed with FIN219 and PHYA monoclonal and COP1 polyclonal antibodies.

Experiment [2] deals with T2, FIN219 overexpressed from the glucocorticoid-inducible transgene pGR:FIN219 (line pGR219, fin219-2 background) (Arabidopsis thaliana) (UniProt Q9SKE2).
T2 sequence: T1 sequence
The experiment is described as above.

B1: phytochrome A (phyA) (receptor, UniProt P14712 1-1122)
chain: MSGSRPTQSSEGSRRSRHSARIIAQTTVDAKLHADFEESGSSFDYSTSVRVTGPVVENQPPRSDKVTTTYLHHIQKGKLIQPFGCLLALDEKTFKVIAYSENASELLTMASHAVPSVGEHPVLGIGTDIRSLFTAPSASALQKALGFGDVSLLNPILVHCRTSAKPFYAIIHRVTGSIIIDFEPVKPYEVPMTAAGALQSYKLAAKAITRLQSLPSGSMERLCDTMVQEVFELTGYDRVMAYKFHEDDHGEVVSEVTKPGLEPYLGLHYPATDIPQAARFLFMKNKVRMIVDCNAKHARVLQDEKLSFDLTLCGSTLRAPHSCHLQYMANMDSIASLVMAVVVNEEDGEGDAPDATTQPQKRKRLWGLVVCHNTTPRFVPFPLRYACEFLAQVFAIHVNKEVELDNQMVEKNILRTQTLLCDMLMRDAPLGIVSQSPNIMDLVKCDGAALLYKDKIWKLGTTPSEFHLQEIASWLCEYHMDSTGLSTDSLHDAGFPRALSLGDSVCGMAAVRISSKDMIFWFRSHTAGEVRWGGAKHDPDDRDDARRMHPRSSFKAFLEVVKTRSLPWKDYEMDAIHSLQLILRNAFKDSETTDVNTKVIYSKLNDLKIDGIQELEAVTSEMVRLIETATVPILAVDSDGLVNGWNTKIAELTGLSVDEAIGKHFLTLVEDSSVEIVKRMLENALEGTEEQNVQFEIKTHLSRADAGPISLVVNACASRDLHENVVGVCFVAHDLTGQKTVMDKFTRIEGDYKAIIQNPNPLIPPIFGTDEFGWCTEWNPAMSKLTGLKREEVIDKMLLGEVFGTQKSCCRLKNQEAFVNLGIVLNNAVTSQDPEKVSFAFFTRGGKYVECLLCVSKKLDREGVVTGVFCFLQLASHELQQALHVQRLAERTAVKRLKALAYIKRQIRNPLSGIMFTRKMIEGTELGPEQRRILQTSALCQKQLSKILDDSDLESIIEGCLDLEMKEFTLNEVLTASTSQVMMKSNGKSVRITNETGEEVMSDTLYGDSIRLQQVLADFMLMAVNFTPSGGQLTVSASLRKDQLGRSVHLANLEIRLTHTGAGIPEFLLNQMFGTEEDVSEEGLSLMVSRKLVKLMNGDVQYLRQAGKSSFIITAELAAANK
Turning to B1, the binding entry in experiment [1] and in experiment [2] was “binds” in each case.
